In publication PMC5095040:
Results are given in words; binding and its absence hold for the method and conditions named. In cells and extracts the contact can be indirect. Some binding calls cover weakened binding; strength is not graded here.

By UniProt entry, the sequences of proteins in these tests, tags left out.
UniProt P35222: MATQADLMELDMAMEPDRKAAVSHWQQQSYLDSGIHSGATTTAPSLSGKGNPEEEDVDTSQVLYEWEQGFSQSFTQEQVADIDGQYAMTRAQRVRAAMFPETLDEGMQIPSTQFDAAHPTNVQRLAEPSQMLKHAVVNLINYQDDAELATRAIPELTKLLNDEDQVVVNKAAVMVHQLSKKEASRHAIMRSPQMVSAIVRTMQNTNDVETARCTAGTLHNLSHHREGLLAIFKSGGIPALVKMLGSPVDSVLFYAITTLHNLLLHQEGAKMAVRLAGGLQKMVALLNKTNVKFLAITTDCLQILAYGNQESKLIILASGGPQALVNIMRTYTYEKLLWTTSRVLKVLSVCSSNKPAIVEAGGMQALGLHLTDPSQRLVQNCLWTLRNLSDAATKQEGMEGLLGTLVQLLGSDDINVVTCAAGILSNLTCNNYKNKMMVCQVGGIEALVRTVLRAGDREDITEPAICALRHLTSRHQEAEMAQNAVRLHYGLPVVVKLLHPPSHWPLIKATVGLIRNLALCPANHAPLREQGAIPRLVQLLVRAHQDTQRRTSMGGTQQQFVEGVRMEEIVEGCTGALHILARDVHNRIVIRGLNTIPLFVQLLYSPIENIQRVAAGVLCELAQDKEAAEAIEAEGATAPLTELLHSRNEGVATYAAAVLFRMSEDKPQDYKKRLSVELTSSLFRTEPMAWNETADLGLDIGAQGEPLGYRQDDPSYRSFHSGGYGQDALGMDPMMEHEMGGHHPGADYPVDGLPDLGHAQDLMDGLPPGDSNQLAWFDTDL

Experiments:
[1] = molecular target: endogenous β-catenin (human (endogenous in HeLa and SKBR-3)) (UniProt P35222); experiment: co-IP; lysates of SKBR-3 cells, endogenous proteins; immunoprecipitation with control IgG, rabbit anti-β-catenin or mouse anti-MUC16, reciprocal; lysis buffer 20 mM Tris-HCl pH 7.4, 150 mM NaCl, 1% Triton X-100; antibodies overnight at 4°C
[2] = molecular target: endogenous MUC16 (human (endogenous in SKBR-3)) (UniProt Q8WXI7); experiment: as above

binding [1] | binding [2] | Substance
binds |  | endogenous MUC16 (from UniProt Q8WXI7 1-14507)
 | binds | endogenous β-catenin (from UniProt P35222 1-781)
